No constants are given. Whether binding was seen depends on the method and setting. Binding seen in cells or lysates may run through a third protein. Binding can be weak; no strength is given. Each block holds one molecule with its values, some of them ahead of it.
Legend:
[1] = target: T1, Terminal (Ter) fragment of PDCD11 (human) (UniProt Q14690); assay: co-IP; co-transfected cells lysed 48 h after transfection in RIPA buffer (50 mM Tris, 150 mM NaCl, 10% glycerol, 5 mM MgCl2, 0.5% NP40, protease inhibitor); anti-Flag agarose, 4 °C overnight; western blot (anti-GFP, anti-Flag)
T1 sequence: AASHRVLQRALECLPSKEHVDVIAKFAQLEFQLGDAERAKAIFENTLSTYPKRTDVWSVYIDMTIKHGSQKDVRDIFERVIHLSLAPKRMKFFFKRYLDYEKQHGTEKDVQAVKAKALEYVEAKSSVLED

[2] = target: Coil–coil fragment of PDCD11 (human); assay: as above

binding [1]: no binding
Molecule: TAD domain of c-Rel (human) (domain or fragment)

binding [1]: binds
Molecule: TAD domain of P65 (human) (domain or fragment)

binding [2]: binds
B1: RHD domain of c-Rel (domain or fragment, UniProt Q04864 8-297)
chain: PYIEIIEQPRQRGMRFRYKCEGRSAGSIPGEHSTDNNRTYPSIQIMNYYGKGKVRITLVTKNDPYKPHPHDLVGKDCRDGYYEAEFGQERRPLFFQNLGIRCVKKKEVKEAIITRIKAGINPFNVPEKQLNDIEDCDLNVVRLCFQVFLPDEHGNLTTALPPVVSNPIYDNRAPNTAELRICRVNKNCGSVRGGDEIFLLCDKVQKDDIEVRFVLNDWEAKGIFSQADVHRQVAIVFKTPPYCKAITEPVTVKMQLRRPSDQEVSESMDFRYLPDEKDTYGNKAKKQKTT
